Assay results from the supplement of paper PMC10849652.
Some of the results follow. Residues, ends and D or L forms follow the SMILES beside them. *: point of attachment. Cbz = O=C(OCc1ccccc1)*

By UniProt entry, the sequences of proteins in these tests, tags left out. Where a name states a change or a piece, a line headed by the entry shows the natural chain unless it says otherwise.
UniProt Q8NDZ6: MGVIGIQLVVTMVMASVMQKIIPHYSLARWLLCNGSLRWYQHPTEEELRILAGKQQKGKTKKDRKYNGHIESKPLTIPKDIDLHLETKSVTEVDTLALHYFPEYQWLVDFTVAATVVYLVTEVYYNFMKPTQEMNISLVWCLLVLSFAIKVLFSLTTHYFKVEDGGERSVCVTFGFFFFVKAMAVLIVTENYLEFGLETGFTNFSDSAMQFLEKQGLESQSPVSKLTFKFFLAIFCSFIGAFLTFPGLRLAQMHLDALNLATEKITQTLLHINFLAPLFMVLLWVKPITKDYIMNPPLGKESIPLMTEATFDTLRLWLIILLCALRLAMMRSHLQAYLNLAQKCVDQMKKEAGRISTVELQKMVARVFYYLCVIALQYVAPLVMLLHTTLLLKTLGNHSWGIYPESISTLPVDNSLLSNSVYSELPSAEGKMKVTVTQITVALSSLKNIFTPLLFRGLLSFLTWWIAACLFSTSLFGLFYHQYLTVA
UniProt Q5T4D3: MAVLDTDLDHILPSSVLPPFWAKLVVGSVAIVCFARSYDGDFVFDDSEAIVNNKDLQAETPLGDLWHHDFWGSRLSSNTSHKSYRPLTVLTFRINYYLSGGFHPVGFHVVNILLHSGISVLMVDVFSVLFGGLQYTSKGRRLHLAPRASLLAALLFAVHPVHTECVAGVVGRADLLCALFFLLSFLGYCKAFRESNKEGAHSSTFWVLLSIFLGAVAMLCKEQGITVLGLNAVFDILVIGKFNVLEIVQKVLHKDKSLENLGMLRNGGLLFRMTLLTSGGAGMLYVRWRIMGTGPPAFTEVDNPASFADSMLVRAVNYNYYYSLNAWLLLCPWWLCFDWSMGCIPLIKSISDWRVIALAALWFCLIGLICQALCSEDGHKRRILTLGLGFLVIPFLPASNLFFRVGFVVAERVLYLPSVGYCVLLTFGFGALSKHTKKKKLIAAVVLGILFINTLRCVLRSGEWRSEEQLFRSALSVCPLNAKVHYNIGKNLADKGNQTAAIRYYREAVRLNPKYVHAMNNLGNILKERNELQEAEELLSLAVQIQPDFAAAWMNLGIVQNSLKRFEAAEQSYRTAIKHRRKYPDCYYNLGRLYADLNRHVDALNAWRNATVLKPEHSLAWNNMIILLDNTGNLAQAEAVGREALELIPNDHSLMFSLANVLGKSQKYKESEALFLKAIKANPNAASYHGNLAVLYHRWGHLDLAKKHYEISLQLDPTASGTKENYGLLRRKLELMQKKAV
UniProt O95807: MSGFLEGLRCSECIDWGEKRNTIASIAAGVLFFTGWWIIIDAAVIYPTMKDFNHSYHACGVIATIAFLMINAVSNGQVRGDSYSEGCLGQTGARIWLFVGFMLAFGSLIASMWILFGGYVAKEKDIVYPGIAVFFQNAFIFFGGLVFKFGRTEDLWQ
UniProt Q8NCS4: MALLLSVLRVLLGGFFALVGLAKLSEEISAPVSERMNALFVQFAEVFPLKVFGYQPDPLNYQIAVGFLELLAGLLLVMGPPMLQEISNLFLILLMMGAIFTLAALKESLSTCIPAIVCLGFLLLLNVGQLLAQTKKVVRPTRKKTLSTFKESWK
UniProt Q7Z403: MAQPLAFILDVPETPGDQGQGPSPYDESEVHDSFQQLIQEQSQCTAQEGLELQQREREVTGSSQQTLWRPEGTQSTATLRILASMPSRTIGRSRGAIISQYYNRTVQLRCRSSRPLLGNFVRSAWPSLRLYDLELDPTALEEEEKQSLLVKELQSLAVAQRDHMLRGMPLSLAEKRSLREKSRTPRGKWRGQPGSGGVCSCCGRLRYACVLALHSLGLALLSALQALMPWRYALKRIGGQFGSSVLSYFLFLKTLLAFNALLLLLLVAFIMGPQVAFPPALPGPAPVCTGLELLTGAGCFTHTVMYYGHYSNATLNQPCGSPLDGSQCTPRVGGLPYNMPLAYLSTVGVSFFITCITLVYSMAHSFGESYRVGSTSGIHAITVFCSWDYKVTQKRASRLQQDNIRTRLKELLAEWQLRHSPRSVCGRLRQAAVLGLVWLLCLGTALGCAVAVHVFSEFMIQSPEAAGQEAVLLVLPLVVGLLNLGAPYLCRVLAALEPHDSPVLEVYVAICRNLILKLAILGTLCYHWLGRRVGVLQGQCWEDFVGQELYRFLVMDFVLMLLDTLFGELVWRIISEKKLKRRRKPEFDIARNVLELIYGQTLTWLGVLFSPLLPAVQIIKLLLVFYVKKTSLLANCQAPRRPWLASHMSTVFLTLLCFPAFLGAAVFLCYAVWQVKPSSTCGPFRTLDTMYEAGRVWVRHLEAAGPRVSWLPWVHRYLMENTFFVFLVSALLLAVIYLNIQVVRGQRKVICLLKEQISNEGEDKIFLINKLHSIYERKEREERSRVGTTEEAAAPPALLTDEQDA
UniProt A0PK00: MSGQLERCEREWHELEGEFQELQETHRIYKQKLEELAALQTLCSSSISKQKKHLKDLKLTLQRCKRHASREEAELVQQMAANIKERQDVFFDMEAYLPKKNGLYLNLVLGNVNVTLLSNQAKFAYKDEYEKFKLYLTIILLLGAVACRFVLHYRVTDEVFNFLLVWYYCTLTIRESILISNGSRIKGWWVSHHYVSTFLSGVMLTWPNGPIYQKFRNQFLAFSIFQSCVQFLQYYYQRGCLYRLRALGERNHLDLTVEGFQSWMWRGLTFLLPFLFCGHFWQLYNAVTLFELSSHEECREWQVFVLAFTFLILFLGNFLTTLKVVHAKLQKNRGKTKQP
UniProt Q9H6X4: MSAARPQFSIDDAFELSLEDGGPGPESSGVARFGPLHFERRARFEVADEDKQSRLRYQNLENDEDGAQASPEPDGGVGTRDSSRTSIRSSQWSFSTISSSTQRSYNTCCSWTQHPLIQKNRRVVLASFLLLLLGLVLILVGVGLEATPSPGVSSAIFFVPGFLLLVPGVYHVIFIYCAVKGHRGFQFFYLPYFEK
UniProt Q9Y3Q3: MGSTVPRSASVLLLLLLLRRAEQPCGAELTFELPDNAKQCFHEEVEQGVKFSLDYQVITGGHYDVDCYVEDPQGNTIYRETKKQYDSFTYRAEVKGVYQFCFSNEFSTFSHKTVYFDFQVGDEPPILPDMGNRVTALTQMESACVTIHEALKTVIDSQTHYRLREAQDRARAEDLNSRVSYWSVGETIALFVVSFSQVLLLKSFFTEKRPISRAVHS
UniProt Q9P0T7: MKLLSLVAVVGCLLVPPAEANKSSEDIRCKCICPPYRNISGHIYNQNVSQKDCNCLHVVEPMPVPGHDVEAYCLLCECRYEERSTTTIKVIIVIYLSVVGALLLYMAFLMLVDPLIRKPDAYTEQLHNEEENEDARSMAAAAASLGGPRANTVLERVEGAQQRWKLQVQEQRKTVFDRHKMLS
UniProt Q5BJH2: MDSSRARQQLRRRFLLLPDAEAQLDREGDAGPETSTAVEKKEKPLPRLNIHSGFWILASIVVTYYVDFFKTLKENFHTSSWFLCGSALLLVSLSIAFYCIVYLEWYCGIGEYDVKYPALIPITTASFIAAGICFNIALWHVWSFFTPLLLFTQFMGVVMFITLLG
UniProt Q7Z7N9: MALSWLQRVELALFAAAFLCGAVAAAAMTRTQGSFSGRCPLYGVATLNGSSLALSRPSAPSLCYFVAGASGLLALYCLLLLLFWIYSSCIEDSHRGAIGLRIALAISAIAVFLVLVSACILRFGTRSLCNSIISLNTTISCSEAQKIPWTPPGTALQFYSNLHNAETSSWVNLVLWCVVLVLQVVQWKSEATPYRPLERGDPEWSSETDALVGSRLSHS
UniProt Q5SWH9: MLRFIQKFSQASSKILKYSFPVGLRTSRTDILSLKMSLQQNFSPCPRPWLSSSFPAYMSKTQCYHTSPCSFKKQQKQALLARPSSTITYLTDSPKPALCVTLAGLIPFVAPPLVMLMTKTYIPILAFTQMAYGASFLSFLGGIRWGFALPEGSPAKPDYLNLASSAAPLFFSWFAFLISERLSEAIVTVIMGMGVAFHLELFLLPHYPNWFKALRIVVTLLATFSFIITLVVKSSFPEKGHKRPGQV
UniProt Q8TDI8: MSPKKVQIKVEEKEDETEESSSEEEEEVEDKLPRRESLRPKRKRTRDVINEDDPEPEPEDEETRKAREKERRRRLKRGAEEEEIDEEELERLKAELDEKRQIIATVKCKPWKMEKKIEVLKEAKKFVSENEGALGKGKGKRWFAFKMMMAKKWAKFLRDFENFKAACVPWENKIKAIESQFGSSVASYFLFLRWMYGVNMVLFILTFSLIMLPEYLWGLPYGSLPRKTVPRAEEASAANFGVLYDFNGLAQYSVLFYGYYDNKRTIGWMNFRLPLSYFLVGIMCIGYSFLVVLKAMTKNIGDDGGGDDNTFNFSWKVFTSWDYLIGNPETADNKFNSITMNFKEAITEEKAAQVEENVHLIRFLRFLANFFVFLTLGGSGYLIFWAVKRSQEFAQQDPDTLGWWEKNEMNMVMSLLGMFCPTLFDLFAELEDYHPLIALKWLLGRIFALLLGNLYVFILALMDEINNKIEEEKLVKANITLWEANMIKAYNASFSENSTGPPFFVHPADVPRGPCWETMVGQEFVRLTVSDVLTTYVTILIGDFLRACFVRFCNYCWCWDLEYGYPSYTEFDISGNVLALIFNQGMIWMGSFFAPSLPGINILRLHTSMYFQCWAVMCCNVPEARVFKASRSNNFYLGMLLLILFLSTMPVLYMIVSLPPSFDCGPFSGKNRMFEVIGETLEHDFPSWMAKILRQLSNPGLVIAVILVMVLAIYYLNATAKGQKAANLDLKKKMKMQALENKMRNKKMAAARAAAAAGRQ
UniProt Q6PL24: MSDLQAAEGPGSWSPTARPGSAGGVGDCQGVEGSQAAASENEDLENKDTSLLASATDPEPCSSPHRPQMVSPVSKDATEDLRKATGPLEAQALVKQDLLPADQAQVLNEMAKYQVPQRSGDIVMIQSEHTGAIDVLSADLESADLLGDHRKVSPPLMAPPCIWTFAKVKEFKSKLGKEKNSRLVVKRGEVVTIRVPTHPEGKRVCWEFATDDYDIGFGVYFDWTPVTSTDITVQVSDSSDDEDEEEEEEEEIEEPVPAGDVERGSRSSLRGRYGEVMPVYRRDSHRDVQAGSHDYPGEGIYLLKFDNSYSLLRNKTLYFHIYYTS
UniProt Q9UKI8: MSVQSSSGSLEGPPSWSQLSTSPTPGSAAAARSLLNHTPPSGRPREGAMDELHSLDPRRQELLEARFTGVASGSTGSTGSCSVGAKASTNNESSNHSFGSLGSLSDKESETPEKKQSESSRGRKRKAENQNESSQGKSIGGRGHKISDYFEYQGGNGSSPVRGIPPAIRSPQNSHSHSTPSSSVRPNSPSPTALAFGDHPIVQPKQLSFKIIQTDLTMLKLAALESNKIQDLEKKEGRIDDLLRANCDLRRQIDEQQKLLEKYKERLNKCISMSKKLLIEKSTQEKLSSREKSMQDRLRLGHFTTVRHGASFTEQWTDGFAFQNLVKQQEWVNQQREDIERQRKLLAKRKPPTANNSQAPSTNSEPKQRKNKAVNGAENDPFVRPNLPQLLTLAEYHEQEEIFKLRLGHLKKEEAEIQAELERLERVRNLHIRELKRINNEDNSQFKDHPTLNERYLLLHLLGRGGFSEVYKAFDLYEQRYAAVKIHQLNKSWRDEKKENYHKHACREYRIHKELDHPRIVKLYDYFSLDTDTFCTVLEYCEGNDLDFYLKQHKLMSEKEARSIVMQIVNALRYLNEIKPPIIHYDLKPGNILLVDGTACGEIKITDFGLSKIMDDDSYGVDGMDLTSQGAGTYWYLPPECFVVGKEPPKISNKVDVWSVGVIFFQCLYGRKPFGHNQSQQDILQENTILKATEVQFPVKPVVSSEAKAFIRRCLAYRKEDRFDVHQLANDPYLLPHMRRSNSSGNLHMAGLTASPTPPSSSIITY
UniProt Q8NE00: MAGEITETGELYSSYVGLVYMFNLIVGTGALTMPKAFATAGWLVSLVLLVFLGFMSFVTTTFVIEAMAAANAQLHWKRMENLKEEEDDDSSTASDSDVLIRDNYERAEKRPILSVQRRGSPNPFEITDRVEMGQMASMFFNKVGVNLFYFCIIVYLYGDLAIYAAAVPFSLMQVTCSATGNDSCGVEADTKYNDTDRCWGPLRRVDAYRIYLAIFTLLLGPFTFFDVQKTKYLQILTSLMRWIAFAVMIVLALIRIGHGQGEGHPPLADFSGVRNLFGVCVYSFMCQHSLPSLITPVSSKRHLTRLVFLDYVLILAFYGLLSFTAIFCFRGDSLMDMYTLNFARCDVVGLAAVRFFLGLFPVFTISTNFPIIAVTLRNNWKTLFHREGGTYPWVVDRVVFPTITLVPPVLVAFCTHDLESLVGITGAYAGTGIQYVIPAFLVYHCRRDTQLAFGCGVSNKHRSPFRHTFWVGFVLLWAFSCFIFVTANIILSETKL
UniProt Q9BUB7: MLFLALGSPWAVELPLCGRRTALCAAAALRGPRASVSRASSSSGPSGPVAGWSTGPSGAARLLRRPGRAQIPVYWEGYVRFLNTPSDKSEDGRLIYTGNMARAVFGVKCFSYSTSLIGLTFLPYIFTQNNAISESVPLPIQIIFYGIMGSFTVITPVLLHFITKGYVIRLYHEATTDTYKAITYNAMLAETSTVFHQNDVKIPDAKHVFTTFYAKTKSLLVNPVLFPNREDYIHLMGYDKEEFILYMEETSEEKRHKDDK

Assays:
Assay in all cases: log2 fold change, soluble protein after heating vs DMSO (PISA); higher = thermal stabilisation; K562 cells, 10 uM, 30 min; active = over 0.2 and 3.5 SD of the protein, either way, in both replicates (recomputed)
IRAK-1-4 Inhibitor I = compound: C1COCCN1CCN2C3=CC=CC=C3N=C2NC(=O)C4=CC(=CC=C4)[N+](=O)[O-] [IRAK-1-4 Inhibitor I]
Method in brief: (§1)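 Soluble protein was quantified by TMTpro 16plex LC-MS/MS after channel sums were equalised. It was obtained as the supernatant after 21,000xg for 90 min from pooled aliquots of K562 cells (2×10^6 cells/mL, 10 μM compound, 30 min) heated for 3 min across 48°C-58°C and extracted in PBS with 0.5% NP-40 at 4°C. Thermal stability values are relative to control samples and come from duplicates. They are given as log2 fold changes.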

ibrutinib = compound: C=CC(=O)N1CCC[C@@H](n2nc(-c3ccc(Oc4ccccc4)cc3)c3c(N)ncnc32)C1 [ibrutinib]
Method in brief: as §1

[1] = compound: CC(=O)c1cnc2ccc(-c3cc(Cl)c(O)c(Cl)c3)nc2c1N[C@H]1CC[C@H](CN(C)C)CC1
Method in brief: as §1

ralimetinib = compound: CC(C)(C)Cn1c(N)nc2ccc(-c3[nH]c(C(C)(C)C)nc3-c3ccc(F)cc3)nc21 [ralimetinib]
Method in brief: as §1

[2] = compound: CC(C)(O)CC(=O)NCCn1ccc2ncnc(Nc3ccc(Oc4cccc(C(F)(F)F)c4)c(Cl)c3)c21
Method in brief: as §1

[3] = compound: CC(C)C1=C2N=C(C=C(N2N=C1)NCC3=CC=CC=C3)NCCCCCCN
Method in brief: as §1

[4] = compound: CC(C)C[C@@H](C=O)NC(=O)[C@H](CC(C)C)NC(=O)[C@H](CC(C)C)NC(=O)OCc1ccccc1
Method in brief: as §1

pinometostat = compound: CC(C)N(C[C@H]1O[C@@H](n2cnc3c(N)ncnc32)[C@H](O)[C@@H]1O)[C@H]1C[C@@H](CCc2nc3cc(C(C)(C)C)ccc3[nH]2)C1 [pinometostat]
Method in brief: as §1

[5] = compound: CC1=C(C2=C(C=C1)C(=O)C3=CC=CC=C3N2CCCN)C
Method in brief: as §1

[6] = compound: CC1=C(C=C(C=C1)NC(=O)C2=CC(=CC=C2)C(C)(C)C#N)NC3=CC4=C(C=C3)N=CN(C4=O)C
Method in brief: as §1

[7] = compound: CC1=C(C=C(C=C1)NC(=O)C2=CC(=CC=C2)N(C)C)NC(=O)C3=CC=C(C=C3)O
Method in brief: as §1

[8] = compound: CC1=CC=C(C=C1)SC2=C3C=C(SC3=CN=C2)C(=O)N
Method in brief: as §1

[9] = compound: CC1=NC(=CC=C1)C2=C(N=C(N2)C(C)(C)C)C3=CC4=NC=CN=C4C=C3
Method in brief: as §1

Nexturastat A = compound: CCCCN(Cc1ccc(C(=O)NO)cc1)C(=O)Nc1ccccc1 [Nexturastat A]
Method in brief: as §1

vemurafenib = compound: CCCS(=O)(=O)Nc1ccc(F)c(C(=O)c2c[nH]c3ncc(-c4ccc(Cl)cc4)cc23)c1F [vemurafenib]
Method in brief: as §1

[10] = compound: CCCS(=O)(=O)Nc1ccc(F)c(C(=O)c2c[nH]c3ncc(Cl)cc23)c1F
Method in brief: as §1

[11] = compound: CCCc1cc(C)[nH]c(=O)c1CNC(=O)c1cc(-c2ccnc(N3CCN(C)CC3)c2)cc2c1cnn2C(C)C
Method in brief: as §1

givinostat = compound: CCN(CC)Cc1ccc2cc(COC(=O)Nc3ccc(C(=O)NO)cc3)ccc2c1 [givinostat]
Method in brief: as §1

barasertib = compound: CCN(CCCOc1ccc2c(Nc3cc(CC(=O)Nc4cccc(F)c4)[nH]n3)ncnc2c1)CCOP(=O)(O)O [barasertib]
Method in brief: as §1

[12] = compound: CC1=C(C(CC(=O)N1)C2=CC=C(C=C2)C(F)(F)F)C(=O)NC3=C(C=C4C(=C3)C=NN4)F
Method in brief: as §1

Measured: log2 fold change

TMEM161B (UniProt Q8NDZ6)
inactive: IRAK-1-4 Inhibitor I 0.06 | ibrutinib -0.039 | [1] 0.008 | ralimetinib -0.097 | [3] -0.052 | [4] 0.015 | pinometostat -0.002 | [5] 0.022 | [6] 0.003 | [7] -0.012 | [8] 0.026 | [9] 0.008 | Nexturastat A -0.063 | vemurafenib 0.079 | [10] 0.053 | [11] 0.012 | givinostat 0.032 | barasertib -0.037
active: [2] -0.227

TMTC4 isoform 3 (UniProt Q5T4D3)
inactive: IRAK-1-4 Inhibitor I 0.091 | ibrutinib -0.113 | pinometostat -0.06 | [9] 0.021 | barasertib -0.087

TMEM50A (UniProt O95807)
inactive: IRAK-1-4 Inhibitor I 0.161 | ibrutinib -0.148 | [1] -0.226 | [2] -0.121 | pinometostat 0.03 | [12] 0.081 | [5] -0.093 | [8] 0.068 | [9] -0.142 | Nexturastat A -0.009 | vemurafenib 0.026 | [10] -0.026 | barasertib -0.241

TMEM35B (UniProt Q8NCS4)
inactive: IRAK-1-4 Inhibitor I -0.025 | ibrutinib -0.085 | [3] -0.004 | pinometostat 0.274 | [12] -0.013 | [5] 0.064 | [9] 0.011 | vemurafenib 0.167 | [11] -0.105 | givinostat 0.024 | barasertib 0.049

TMC6 (UniProt Q7Z403)
inactive: IRAK-1-4 Inhibitor I -0.194 | [1] -0.117 | ralimetinib 0.06 | [3] -0.073 | [4] 0.355 | pinometostat 0.096 | [12] 0.088 | [5] 0.004 | [7] -0.116 | [8] -0.319 | [9] -0.358 | vemurafenib 0.039 | [10] 0.068 | [11] -0.001 | givinostat 0.064

TMEM167B (UniProt Q9NRX6)
inactive: IRAK-1-4 Inhibitor I 0.038 | ibrutinib 0.018 | ralimetinib -0.05 | [3] 0.049 | [4] 0.035 | pinometostat 0.05 | [12] -0.005 | [5] -0.069 | [6] -0.008 | [7] -0.001 | [8] -0.07 | [9] -0.043 | vemurafenib -0.095 | [10] -0.019 | [11] -0.153 | givinostat 0.026 | barasertib -0.056

TMEM120B (UniProt A0PK00)
inactive: IRAK-1-4 Inhibitor I 0.025 | [1] -0.239 | ralimetinib 0.197 | [3] 0.131 | [4] -0.106 | pinometostat -0.054 | [12] -0.241 | [5] 0.013 | [7] 0.008 | [9] 0.074 | vemurafenib 0.104 | [11] 0.001 | givinostat 0.068

TMEM134 (UniProt Q9H6X4)
inactive: IRAK-1-4 Inhibitor I -0.003 | ibrutinib 0.009 | [1] -0.058 | ralimetinib -0.028 | [2] -0.091 | [3] 0.143 | [4] 0.073 | pinometostat -0.126 | [7] 0.126 | [9] -0.003 | Nexturastat A -0.039 | [11] -0.045 | givinostat 0.083 | barasertib -0.026

TMED3 (UniProt Q9Y3Q3)
inactive: IRAK-1-4 Inhibitor I 0.02 | ibrutinib 0.016 | [1] -0.07 | [2] -0.056 | [3] -0.139 | pinometostat -0.037 | [12] 0.011 | [5] 0.086 | [6] -0.013 | [8] 0.024 | [9] -0.008 | Nexturastat A 0.027 | vemurafenib -0.054 | [10] 0.037 | [11] -0.044 | givinostat -0.038 | barasertib -0.015

TMEM63A (UniProt O94886)
inactive: IRAK-1-4 Inhibitor I -0.048 | ibrutinib 0.072 | [1] 0.093 | [2] -0.039 | [3] 0.016 | pinometostat -0.021 | [12] -0.027 | [5] 0.039 | [6] 0.066 | [8] -0.082 | [9] 0.023 | Nexturastat A 0.002 | vemurafenib 0 | [10] -0.023 | [11] 0.2 | givinostat 0.011 | barasertib 0.075

TMEM9 (UniProt Q9P0T7)
inactive: IRAK-1-4 Inhibitor I 0.076 | ibrutinib 0.039 | [1] 0.012 | ralimetinib -0.003 | [2] -0.07 | [3] -0.211 | [4] 0.064 | pinometostat -0.042 | [5] -0.013 | [6] -0.024 | [7] -0.041 | [8] 0.057 | [9] -0.008 | Nexturastat A 0 | vemurafenib 0.028 | [10] 0.091 | [11] -0.062 | givinostat 0.039 | barasertib 0.019

TMEM128 (UniProt Q5BJH2)
inactive: IRAK-1-4 Inhibitor I -0.046 | ibrutinib -0.025 | ralimetinib -0.036 | [2] -0.051 | [3] 0.028 | [4] 0.108 | pinometostat 0.122 | [5] 0 | [6] -0.023 | [7] -0.006 | [8] -0.005 | [9] -0.054 | Nexturastat A 0.021 | vemurafenib -0.279 | [10] 0.052 | givinostat 0.249 | barasertib -0.004
active: [1] 0.45

TMEM179B (UniProt Q7Z7N9)
inactive: IRAK-1-4 Inhibitor I 0.04 | ibrutinib -0.05 | [1] -0.061 | ralimetinib -0.008 | [2] -0.24 | [3] -0.011 | [4] -0.021 | pinometostat -0.024 | [5] 0.019 | [6] -0.233 | [7] -0.003 | [8] 0.011 | [9] 0.027 | Nexturastat A 0.378 | [10] 0.053 | [11] -0.021 | givinostat -0.118 | barasertib 0.045

TMEM69 (UniProt Q5SWH9)
inactive: IRAK-1-4 Inhibitor I 0.037 | ibrutinib 0.03 | [1] 0.033 | ralimetinib -0.063 | [3] 0.112 | [4] 0.019 | pinometostat 0.02 | [12] 0.089 | [5] 0.053 | [7] 0.026 | [8] -0.006 | [9] 0.036 | [10] 0.01 | [11] -0.147 | givinostat -0.018 | barasertib -0.092

TMEM164 (UniProt Q5U3C3)
inactive: IRAK-1-4 Inhibitor I 0.057 | ibrutinib -0.036 | [1] -0.088 | [2] -0.025 | [3] -0.309 | pinometostat -0.073 | [5] 0.066 | [6] 0.288 | [8] 0.05 | [9] -0.047 | Nexturastat A -0.142 | vemurafenib -0.083 | [10] 0.078 | [11] -0.305 | givinostat -0.038 | barasertib -0.095

Reprinted from the entries so far (5 entries):
TMEM134 (UniProt Q9H6X4)
inactive: IRAK-1-4 Inhibitor I -0.003 | ibrutinib 0.009 | [1] -0.058 | ralimetinib -0.028 | [2] -0.091 | [3] 0.143 | [4] 0.073 | pinometostat -0.126 | [7] 0.126 | [9] -0.003 | Nexturastat A -0.039 | [11] -0.045 | givinostat 0.083 | barasertib -0.026

TMED3 (UniProt Q9Y3Q3)
inactive: IRAK-1-4 Inhibitor I 0.02 | ibrutinib 0.016 | [1] -0.07 | [2] -0.056 | [3] -0.139 | pinometostat -0.037 | [12] 0.011 | [5] 0.086 | [6] -0.013 | [8] 0.024 | [9] -0.008 | Nexturastat A 0.027 | vemurafenib -0.054 | [10] 0.037 | [11] -0.044 | givinostat -0.038 | barasertib -0.015

TMEM63A (UniProt O94886)
inactive: IRAK-1-4 Inhibitor I -0.048 | ibrutinib 0.072 | [1] 0.093 | [2] -0.039 | [3] 0.016 | pinometostat -0.021 | [12] -0.027 | [5] 0.039 | [6] 0.066 | [8] -0.082 | [9] 0.023 | Nexturastat A 0.002 | vemurafenib 0 | [10] -0.023 | [11] 0.2 | givinostat 0.011 | barasertib 0.075

TMEM9 (UniProt Q9P0T7)
inactive: IRAK-1-4 Inhibitor I 0.076 | ibrutinib 0.039 | [1] 0.012 | ralimetinib -0.003 | [2] -0.07 | [3] -0.211 | [4] 0.064 | pinometostat -0.042 | [5] -0.013 | [6] -0.024 | [7] -0.041 | [8] 0.057 | [9] -0.008 | Nexturastat A 0 | vemurafenib 0.028 | [10] 0.091 | [11] -0.062 | givinostat 0.039 | barasertib 0.019

TMEM128 (UniProt Q5BJH2)
inactive: IRAK-1-4 Inhibitor I -0.046 | ibrutinib -0.025 | ralimetinib -0.036 | [2] -0.051 | [3] 0.028 | [4] 0.108 | pinometostat 0.122 | [5] 0 | [6] -0.023 | [7] -0.006 | [8] -0.005 | [9] -0.054 | Nexturastat A 0.021 | vemurafenib -0.279 | [10] 0.052 | givinostat 0.249 | barasertib -0.004
active: [1] 0.45

Remaining list, next part:

TMC1 (UniProt Q8TDI8)
inactive: IRAK-1-4 Inhibitor I -0.086 | ibrutinib -0.099 | [1] -0.107 | [2] 0.016 | [3] -0.204 | pinometostat -0.011 | [12] -0.005 | [5] -0.027 | [6] 0.146 | [8] 0.032 | [9] 0.048 | Nexturastat A -0.192 | vemurafenib -0.014 | [10] -0.054 | [11] -0.514 | givinostat -0.049 | barasertib 0.076

TMED8 (UniProt Q6PL24)
inactive: IRAK-1-4 Inhibitor I -0.103 | ibrutinib 0.018 | [1] -0.128 | ralimetinib 0.075 | [3] -0.04 | [4] 0.029 | pinometostat -0.084 | [12] 0.182 | [5] -0.04 | [7] -0.101 | [8] 0.006 | [9] 0.164 | vemurafenib 0.004 | [10] -0.006 | [11] 0.086 | givinostat 0.084 | barasertib 0.113

TLK1 (UniProt Q9UKI8)
active: [5] 0.218
inactive: IRAK-1-4 Inhibitor I 0.027 | ibrutinib -0.003 | [1] -0.089 | ralimetinib 0.02 | [2] -0.032 | [3] -0.064 | [4] -0.041 | pinometostat -0.041 | [6] 0.062 | [7] -0.009 | [8] 0.018 | [9] 0.011 | Nexturastat A 0.012 | vemurafenib 0.008 | [10] 0.019 | [11] -0.053 | givinostat 0.078 | barasertib 0.079

TMEM104 (UniProt Q8NE00)
active: [3] -0.473
inactive: IRAK-1-4 Inhibitor I -0.039 | [1] 0.038 | ralimetinib -0.09 | [2] 0.009 | [4] 0.082 | pinometostat -0.106 | [7] 0.058 | [8] -0.015 | [9] -0.039 | Nexturastat A -0.046 | [10] -0.173 | [11] -0.126 | givinostat -0.012

TMEM70 (UniProt Q9BUB7)
inactive: IRAK-1-4 Inhibitor I 0.07 | ibrutinib 0.068 | [1] -0.034 | ralimetinib -0.044 | [2] -0.095 | [3] 0.13 | [4] 0.028 | pinometostat 0.019 | [5] 0.086 | [6] 0.006 | [7] 0.051 | [8] 0.051 | [9] 0.005 | Nexturastat A -0.012 | vemurafenib -0.011 | [10] 0.029 | [11] -0.053 | givinostat -0.164 | barasertib 0.047
